Source: PubChem BioAssay AID720505 (Drosophila RNAi Screening Center, 2013)

Screen: 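Genes needed for store-operated calcium entry in fly cells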 (primary screen)
Cells: Drosophila S2R+ cells
Reagents: long dsRNA against Drosophila genes
Conditions: thapsigargin (2 µM) in calcium-free buffer to empty internal stores, then 2 mM calcium added back
Measurement: 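Stores emptied by 2 µM thapsigargin without calcium, then 2 mM calcium re-added; fluo-4 fluorescence followed by FLIPR in 384-well plates, per-well averaged endpoint, raw; two screen passes, some wells retested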
Reading the numbers: calcium signal: higher = more calcium entry after store depletion
Rule for the call: 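About 1500 genes called as lowering calcium entry, by varying amounts, judged against per-plate control wells with STIM1 as positive and Rho1 as negative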
Meaning of the calls: active = called as lowering calcium entry; inactive = not called
The deposit covers about 20,000 reagents; this is an unselected part of those that have a named target and a result. Over the whole deposit, about 2,100 (10%) are marked active. 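Raw plate signals without normalisation; calls rest on control-based scores that were not deposited; replicate 2 separates called from uncalled poorly.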 A number with no mark means an inactive call. A plus sign joins genes that one reagent is predicted to hit. No sequences are given here. The record does not give: the amount of reagent, the time to read-out.

target gene,amplicon,"calcium signal, replicate 1","calcium signal, replicate 2"
CG15878,DRSC08486,72.2,93
ND-49L,DRSC14437,280,133
Cyp305a1,DRSC11126,111,111
Syx18,DRSC14628,144,186
CG8813,DRSC00706,87.4,153
CG9582,DRSC03267,132,127
Clamp,DRSC03718,163,93.7
Clamp,DRSC21682,140,74.2
Tsp42Ee,DRSC05947,85.2,106
CG16782,DRSC18118,85.9,97.4
p-cup,DRSC19513,98.8,80.3
Vha16-3,DRSC10872,103,128
Nt5a,DRSC08561,138,94.5

Continued, starting with the last 2 of the part before.
target gene,amplicon,"calcium signal, replicate 1","calcium signal, replicate 2"
Vha16-3,DRSC10872,103,128
Nt5a,DRSC08561,138,94.5
Cpr76Bd,DRSC11063,70.8 (active),133
CG6225,DRSC15996,142,73.4
CG42561,DRSC05676,101,93.8
CR18275 + CG13373,DRSC17900,68.3,108
CG8249,DRSC07125,128,114
Su(var)205,DRSC03446,117,229
Sb,DRSC16851,107,153
CG12945,DRSC14573,128,73.2
CG2909,DRSC18241,69.6 (active),98.4
Ir54a + sub,DRSC06459,168,155
CG33491 (retired record) + CG33496 (retired record) + CG33487 (retired record) + 1 more,DRSC22969,103,170
CG34281,DRSC14807,101,145
mei-P22,DRSC11366,81.5,83.5
Abcd1,DRSC17157,121,119
chas,DRSC19508,101,116
chas,DRSC19509,98.3,116
CG9109,DRSC03139,122,271
CG7997,DRSC07052,152,119
mRpL28,DRSC02724,154,84
CG3651,DRSC03730,172,147
CG15210,DRSC19656,97.6,93.7
